Measurements taken from publication PMC9583559.
These are yes or no findings as the source states them, for the method shown. Binding seen in cells or lysates may run through a third protein. Some entries that bind do so weakly or less than the wild type.

The chains behind the UniProt entries cited, without tags or fusion partners. Residues count along the entry.
UniProt O60494, residues 36-3623: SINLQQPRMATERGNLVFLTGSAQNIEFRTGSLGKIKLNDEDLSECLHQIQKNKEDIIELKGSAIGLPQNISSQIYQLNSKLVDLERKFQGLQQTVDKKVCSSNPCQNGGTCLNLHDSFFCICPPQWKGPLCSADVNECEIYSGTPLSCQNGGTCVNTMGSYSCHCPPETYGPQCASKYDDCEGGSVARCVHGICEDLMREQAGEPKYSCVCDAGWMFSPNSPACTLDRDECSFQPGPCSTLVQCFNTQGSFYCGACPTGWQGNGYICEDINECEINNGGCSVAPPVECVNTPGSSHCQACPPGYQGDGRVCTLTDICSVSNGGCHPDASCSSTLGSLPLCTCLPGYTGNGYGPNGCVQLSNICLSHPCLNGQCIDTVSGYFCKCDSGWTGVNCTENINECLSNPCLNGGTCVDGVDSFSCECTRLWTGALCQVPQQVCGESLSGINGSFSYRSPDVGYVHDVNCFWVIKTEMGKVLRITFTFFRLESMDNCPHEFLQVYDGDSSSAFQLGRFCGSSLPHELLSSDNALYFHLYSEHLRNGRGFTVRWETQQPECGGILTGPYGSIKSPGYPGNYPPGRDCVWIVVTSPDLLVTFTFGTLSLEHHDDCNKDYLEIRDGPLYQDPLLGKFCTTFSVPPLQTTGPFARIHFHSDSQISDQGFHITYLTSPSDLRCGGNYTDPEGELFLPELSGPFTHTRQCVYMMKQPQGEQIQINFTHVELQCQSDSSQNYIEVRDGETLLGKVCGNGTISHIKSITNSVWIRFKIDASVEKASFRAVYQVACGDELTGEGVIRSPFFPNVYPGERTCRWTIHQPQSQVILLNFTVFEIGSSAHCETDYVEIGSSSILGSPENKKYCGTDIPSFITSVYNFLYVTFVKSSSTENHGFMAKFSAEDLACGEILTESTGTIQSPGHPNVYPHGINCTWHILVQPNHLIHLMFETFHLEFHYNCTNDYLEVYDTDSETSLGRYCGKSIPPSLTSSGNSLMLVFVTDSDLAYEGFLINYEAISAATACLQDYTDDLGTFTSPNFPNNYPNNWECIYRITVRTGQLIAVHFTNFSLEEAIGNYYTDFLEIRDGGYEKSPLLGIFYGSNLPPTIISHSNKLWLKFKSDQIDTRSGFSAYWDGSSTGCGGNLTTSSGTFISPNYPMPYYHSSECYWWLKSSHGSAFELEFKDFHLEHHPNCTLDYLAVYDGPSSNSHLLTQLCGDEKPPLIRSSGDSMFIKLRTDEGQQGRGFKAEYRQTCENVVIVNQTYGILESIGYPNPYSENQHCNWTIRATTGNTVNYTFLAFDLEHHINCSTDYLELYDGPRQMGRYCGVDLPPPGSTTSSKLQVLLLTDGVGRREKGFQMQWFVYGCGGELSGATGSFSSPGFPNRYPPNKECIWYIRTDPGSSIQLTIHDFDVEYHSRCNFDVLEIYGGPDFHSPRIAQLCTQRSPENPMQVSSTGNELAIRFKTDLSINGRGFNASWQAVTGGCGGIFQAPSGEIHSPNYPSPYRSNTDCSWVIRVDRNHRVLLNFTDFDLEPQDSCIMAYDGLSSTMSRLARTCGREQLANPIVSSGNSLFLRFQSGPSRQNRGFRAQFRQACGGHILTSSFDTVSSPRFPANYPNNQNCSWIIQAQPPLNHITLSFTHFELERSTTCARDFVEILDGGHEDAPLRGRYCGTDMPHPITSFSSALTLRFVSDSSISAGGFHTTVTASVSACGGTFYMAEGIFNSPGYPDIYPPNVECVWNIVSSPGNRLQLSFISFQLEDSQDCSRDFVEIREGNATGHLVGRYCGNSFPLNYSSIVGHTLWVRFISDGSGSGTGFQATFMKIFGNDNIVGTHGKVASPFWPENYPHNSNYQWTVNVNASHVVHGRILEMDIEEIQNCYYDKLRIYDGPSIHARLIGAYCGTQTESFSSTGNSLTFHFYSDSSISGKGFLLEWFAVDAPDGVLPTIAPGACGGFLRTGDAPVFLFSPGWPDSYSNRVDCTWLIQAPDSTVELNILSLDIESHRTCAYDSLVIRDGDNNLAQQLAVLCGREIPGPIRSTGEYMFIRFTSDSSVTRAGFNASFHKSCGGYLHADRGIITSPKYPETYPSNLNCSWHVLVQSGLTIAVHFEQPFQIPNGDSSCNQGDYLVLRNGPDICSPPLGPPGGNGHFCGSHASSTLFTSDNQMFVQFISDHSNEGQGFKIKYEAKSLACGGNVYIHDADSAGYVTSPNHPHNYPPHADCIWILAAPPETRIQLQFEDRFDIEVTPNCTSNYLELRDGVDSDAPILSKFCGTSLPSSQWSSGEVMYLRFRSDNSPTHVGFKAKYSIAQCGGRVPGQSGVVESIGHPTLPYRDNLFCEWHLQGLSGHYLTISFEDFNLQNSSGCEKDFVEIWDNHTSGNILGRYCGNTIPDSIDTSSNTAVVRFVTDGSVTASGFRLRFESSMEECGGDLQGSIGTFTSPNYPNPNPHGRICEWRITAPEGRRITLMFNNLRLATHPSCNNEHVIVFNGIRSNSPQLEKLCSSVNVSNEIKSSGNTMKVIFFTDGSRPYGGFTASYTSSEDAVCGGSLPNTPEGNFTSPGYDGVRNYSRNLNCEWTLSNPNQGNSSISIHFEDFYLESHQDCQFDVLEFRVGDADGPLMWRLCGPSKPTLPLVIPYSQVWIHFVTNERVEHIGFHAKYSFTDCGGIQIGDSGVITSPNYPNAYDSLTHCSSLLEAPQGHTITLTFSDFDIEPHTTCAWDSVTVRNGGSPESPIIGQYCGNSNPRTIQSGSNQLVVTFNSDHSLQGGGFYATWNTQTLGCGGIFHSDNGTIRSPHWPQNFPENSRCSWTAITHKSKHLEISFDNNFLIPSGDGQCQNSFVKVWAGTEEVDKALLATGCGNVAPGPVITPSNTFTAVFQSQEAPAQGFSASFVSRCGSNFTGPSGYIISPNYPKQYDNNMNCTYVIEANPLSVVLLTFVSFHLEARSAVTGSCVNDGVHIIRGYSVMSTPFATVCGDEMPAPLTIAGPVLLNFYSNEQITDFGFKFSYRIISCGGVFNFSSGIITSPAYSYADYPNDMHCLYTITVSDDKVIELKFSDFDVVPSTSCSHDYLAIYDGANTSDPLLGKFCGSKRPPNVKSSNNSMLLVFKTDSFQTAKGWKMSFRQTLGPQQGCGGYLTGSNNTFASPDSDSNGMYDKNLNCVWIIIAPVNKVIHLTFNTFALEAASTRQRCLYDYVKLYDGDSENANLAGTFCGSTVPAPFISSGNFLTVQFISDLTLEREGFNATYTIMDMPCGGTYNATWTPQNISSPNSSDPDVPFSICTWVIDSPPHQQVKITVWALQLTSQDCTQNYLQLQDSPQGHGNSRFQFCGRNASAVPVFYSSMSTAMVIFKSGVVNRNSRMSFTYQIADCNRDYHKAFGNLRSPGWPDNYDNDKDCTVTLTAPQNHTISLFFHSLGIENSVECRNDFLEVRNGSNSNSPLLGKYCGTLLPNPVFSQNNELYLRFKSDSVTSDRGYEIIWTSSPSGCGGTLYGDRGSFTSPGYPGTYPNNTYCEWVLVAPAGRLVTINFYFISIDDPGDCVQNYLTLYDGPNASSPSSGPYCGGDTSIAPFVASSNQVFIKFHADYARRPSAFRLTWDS

Tests used:
[1] = target: Cubilin (wild type) (human) (UniProt O60494); test: co-IP; protein extracts of co-transfected HEK293T cells incubated with anti-HA (or IgG) for 24 h, then Protein A/G magnetic beads for 24 h; blot for AMN
[2] = target: Cubilin (wild type) (human) (UniProt O60494); test: proximity ligation; Duolink PLA on fixed co-transfected HEK293T cells with primary antibodies against HA and AMN

- binding [1]: binds
- binding [2]: binds
B1: Amnionless (protein, UniProt Q9BXJ7 20-453)
chain: VSKLWVPNTDFDVAANWSQNRTPCAGGAVEFPADKMVSVLVQEGHAVSDMLLPLDGELVLASGAGFGVSDVGSHLDCGAGEPAVFRDSDRFSWHDPHLWRSGDEAPGLFFVDAERVPCRHDDVFFPPSASFRVGLGPGASPVRVRSISALGRTFTRDEDLAVFLASRAGRLRFHGPGALSVGPEDCADPSGCVCGNAEAQPWICAALLQPLGGRCPQAACHSALRPQGQCCDLCGAVVLLTHGPAFDLERYRARILDTFLGLPQYHGLQVAVSKVPRSSRLREADTEIQVVLVENGPETGGAGRLARALLADVAENGEALGVLEATMRESGAHVWGSSAAGLAGGVAAAVLLALLVLLVAPPLLRRAGRLRWRRHEAAAPAGAPLGFRNPVFDVTASEELPLPRRLSLVPKAAADSTSHSYFVNPLFAGAEAEA
